Results are given in words; binding and its absence hold for the method and conditions named. In cells and extracts the contact can be indirect. Some entries that bind do so weakly or less than the wild type.

By UniProt entry, the sequences of proteins in these tests, tags left out.
UniProt Q7XPM8: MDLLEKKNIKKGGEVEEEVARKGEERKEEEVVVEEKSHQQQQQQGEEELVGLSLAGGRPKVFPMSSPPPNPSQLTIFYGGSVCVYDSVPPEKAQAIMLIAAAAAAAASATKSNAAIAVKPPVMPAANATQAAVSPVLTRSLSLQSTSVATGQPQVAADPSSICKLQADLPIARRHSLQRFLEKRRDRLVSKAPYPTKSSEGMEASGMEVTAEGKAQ
UniProt Q336P5: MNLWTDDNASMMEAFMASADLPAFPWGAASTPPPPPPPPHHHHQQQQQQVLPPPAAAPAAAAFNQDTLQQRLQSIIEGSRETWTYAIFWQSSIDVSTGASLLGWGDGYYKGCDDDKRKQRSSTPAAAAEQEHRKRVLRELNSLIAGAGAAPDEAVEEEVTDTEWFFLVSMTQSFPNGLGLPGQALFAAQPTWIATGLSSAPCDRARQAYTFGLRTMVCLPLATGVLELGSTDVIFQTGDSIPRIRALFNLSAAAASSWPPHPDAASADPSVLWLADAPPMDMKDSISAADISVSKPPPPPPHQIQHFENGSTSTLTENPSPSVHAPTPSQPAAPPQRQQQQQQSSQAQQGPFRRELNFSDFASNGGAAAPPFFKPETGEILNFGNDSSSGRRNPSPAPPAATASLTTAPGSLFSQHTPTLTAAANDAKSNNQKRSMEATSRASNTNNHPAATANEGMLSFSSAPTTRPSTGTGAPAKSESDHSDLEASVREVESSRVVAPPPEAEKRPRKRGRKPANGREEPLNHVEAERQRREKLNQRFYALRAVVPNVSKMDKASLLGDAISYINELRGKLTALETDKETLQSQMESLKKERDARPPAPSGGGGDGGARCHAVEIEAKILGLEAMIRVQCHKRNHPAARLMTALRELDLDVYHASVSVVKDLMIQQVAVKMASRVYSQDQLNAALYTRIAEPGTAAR

The assay concerns the target JAZ1-His (rice) (UniProt Q7XPM8). Description: pull-down; competitive binding, called His-tag pull-down in the legend; GATA19-V5 at ratios of 1:50:500 incubated 1 h with JAZ1-His, then MYC2-Flag added for another hour; Western blot. For orientation: A western blot detects proteins with antibodies after separation by electrophoresis.

Take MYC2-Flag (from UniProt Q336P5 1-699): the binding entry is given as “binds”.

These data come from article PMC12048567.
